Source: publication PMC5972614

How the values were obtained:
[1] = biological target: BD–P0^BrA (Brassica yellows virus genotype A P0 protein fused to the GAL4 binding domain) (Brassica yellows virus genotype A (BrYV-A)); test: two-hybrid; Clontech Matchmaker GAL4 Two-Hybrid System 3 library screen: BD–P0^BrA bait (strain Y187) against an Arabidopsis cDNA library
[2] = biological target: BD–P0^BrA (Brassica yellows virus genotype A P0 protein fused to the GAL4 binding domain) (Brassica yellows virus genotype A (BrYV-A)); test: two-hybrid; directed GAL4 yeast two-hybrid (Matchmaker System 3), yeast mating, BD and AD fusions, growth on SD/−WL and SD/−AHLW, 30 °C
[3] = biological target: Flag-tagged P0^BrA (P0^BrA–Flag) (Brassica yellows virus genotype A (BrYV-A)); test: co-IP; proteins co-expressed in N. benthamiana leaves by agro-infiltration, 2 dpi; clarified lysate on anti-Flag M2 agarose beads 3 h; 25 mM Tris-HCl pH 7.5, 150 mM NaCl, 1 mM EDTA, 10% glycerol, 0.1% Triton X-100; immunoblot

Binder | binding [1] | binding [2] | binding [3]
AtRAF2 (Arabidopsis Rubisco assembly factor 2), GAL4 yeast two-hybrid fusions (AD–AtRAF2; BD fusion) (protein, UniProt Q9LU63 1-220) MAATSSSPPCNISASSLLLRQPSRSILKVFGLLPPVSRNNRKLGRLTVTRSNLAQDFLGDFGARDPYPEEIASQFGDKVLGCQSTEHKILIPNASVLSLSQLQCSPVSSSQPPLSGDDARTLLHKVLGWSIVDNEAGGLKIRCMWKVRDFGCGVELINRIHKVAEASGHYPSLHLESPTQVRAELFTSSIGGLSMNDFIMAAKIDDIKTSDLSPRKRAWA | binds | binds | –
AtRAF2 as used in the co-immunoprecipitation with P0^BrA (protein, UniProt Q9LU63 51-220) SNLAQDFLGDFGARDPYPEEIASQFGDKVLGCQSTEHKILIPNASVLSLSQLQCSPVSSSQPPLSGDDARTLLHKVLGWSIVDNEAGGLKIRCMWKVRDFGCGVELINRIHKVAEASGHYPSLHLESPTQVRAELFTSSIGGLSMNDFIMAAKIDDIKTSDLSPRKRAWA | – | – | binds

No constants are given. Whether binding was seen depends on the method and setting. Binding calls can cover weak binding; strength is not graded here. For part of these data: Tags and fused reporters may be left off the sequences shown. For part of these data: Binding seen in cells or lysates may run through a third protein.
